The target of this assay is Flag-HA-CHD1L (UniProt Q86WJ1). The assay is described as follows: affinity purification with mass spectrometry; tandem affinity purification of the CHD1L-containing complex from 786-O cells stably expressing Flag-HA-CHD1L; peptides analysed by mass spectrometry.

By UniProt entry, the sequences of proteins in these tests, tags left out.
UniProt Q86WJ1: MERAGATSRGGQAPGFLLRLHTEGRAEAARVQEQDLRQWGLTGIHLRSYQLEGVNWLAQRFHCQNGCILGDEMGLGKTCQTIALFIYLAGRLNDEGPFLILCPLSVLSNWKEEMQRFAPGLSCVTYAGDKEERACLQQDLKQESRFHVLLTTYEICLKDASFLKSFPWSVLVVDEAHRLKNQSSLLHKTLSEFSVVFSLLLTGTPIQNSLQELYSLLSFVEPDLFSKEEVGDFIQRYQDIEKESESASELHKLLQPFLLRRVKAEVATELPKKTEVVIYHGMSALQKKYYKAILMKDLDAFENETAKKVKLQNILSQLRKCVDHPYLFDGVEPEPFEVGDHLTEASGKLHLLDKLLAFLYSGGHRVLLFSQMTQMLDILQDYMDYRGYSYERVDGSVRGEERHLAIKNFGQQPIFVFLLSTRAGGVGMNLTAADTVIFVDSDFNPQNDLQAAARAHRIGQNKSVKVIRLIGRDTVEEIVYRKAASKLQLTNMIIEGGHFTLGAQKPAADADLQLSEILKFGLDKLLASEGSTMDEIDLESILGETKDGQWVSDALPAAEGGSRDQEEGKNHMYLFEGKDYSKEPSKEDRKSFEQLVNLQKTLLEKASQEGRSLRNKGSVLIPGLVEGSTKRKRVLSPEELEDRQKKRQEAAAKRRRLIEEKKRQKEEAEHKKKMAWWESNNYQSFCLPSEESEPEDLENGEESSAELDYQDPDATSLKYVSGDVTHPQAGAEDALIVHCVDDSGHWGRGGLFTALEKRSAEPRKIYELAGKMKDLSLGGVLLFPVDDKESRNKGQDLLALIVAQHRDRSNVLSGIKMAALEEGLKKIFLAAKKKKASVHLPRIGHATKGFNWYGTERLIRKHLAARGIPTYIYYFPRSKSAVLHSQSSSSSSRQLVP
UniProt Q9NRC8: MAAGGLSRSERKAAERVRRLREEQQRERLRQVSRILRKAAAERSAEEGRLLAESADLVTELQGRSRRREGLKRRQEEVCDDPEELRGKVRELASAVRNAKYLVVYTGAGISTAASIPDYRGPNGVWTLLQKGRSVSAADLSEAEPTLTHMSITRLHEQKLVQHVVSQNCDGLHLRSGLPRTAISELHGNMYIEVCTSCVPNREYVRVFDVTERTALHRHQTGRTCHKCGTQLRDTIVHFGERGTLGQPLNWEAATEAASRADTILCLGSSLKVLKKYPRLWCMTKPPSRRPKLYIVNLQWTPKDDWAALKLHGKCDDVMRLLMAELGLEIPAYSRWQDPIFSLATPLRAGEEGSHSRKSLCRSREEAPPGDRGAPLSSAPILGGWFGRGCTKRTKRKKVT

Results are given in words; binding and its absence hold for the method and conditions named. In cells and extracts the contact can be indirect. These calls come from enrichment with a bait or labelling near it, and not all partners need be listed.

For SIRT7 (from UniProt Q9NRC8 1-400), the binding result is reported as “binds”.

Source of the values: article PMC10493023.
